Measurements reported in patent US20040166530A1 (BAYLOR COLLEGE OF MEDICINE, published 2004).
These are yes or no findings as the source states them, for the method shown. In cells and extracts the contact can be indirect. Some results given as binding are weak or reduced against the parent protein; the word gives no strength. For some assays here: Sequences can lack the tags named with a protein.

The chains behind the UniProt entries cited, without tags or fusion partners. Where a name states a change or a piece, a line headed by the entry shows the natural chain unless it says otherwise. Residues count along the entry.
UniProt P30283: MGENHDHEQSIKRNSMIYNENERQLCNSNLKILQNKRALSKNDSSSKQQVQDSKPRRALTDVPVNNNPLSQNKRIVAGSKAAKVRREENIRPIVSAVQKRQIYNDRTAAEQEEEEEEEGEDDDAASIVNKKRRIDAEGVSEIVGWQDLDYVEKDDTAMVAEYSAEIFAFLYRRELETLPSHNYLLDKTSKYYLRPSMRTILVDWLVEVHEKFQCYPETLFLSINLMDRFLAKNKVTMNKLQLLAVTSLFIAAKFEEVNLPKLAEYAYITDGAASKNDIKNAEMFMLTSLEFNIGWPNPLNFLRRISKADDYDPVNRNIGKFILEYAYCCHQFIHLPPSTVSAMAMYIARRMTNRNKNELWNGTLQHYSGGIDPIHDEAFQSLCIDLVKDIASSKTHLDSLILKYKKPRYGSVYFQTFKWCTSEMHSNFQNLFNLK
UniProt P00546: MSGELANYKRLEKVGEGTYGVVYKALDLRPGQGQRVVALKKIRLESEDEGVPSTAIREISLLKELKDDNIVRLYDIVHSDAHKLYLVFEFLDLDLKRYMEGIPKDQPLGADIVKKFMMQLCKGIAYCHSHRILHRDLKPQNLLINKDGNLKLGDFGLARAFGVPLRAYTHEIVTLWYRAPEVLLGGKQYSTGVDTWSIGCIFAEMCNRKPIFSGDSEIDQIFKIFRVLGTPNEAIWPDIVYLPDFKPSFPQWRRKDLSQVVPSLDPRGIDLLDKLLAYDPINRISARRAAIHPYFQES
UniProt P52286, residues 2-194: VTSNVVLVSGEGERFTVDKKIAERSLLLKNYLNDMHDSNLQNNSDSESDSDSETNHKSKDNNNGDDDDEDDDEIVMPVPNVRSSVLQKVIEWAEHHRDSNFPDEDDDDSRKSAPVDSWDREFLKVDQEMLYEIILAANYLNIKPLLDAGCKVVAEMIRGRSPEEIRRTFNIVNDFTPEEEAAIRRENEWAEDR
UniProt P38634: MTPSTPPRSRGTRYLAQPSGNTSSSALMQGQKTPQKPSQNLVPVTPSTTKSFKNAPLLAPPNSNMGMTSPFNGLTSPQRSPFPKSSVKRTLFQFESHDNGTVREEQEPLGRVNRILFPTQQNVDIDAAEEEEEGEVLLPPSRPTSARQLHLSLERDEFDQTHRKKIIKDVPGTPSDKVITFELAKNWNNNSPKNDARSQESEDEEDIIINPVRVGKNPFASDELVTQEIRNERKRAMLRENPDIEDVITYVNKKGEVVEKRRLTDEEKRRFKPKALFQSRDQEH

T1: Myc-tagged Cdc53 (Cdc53^M) (S. cerevisiae, UniProt Q12018 1-815)
T1 construct: Expressed from baculovirus in insect cells; not shown: N-terminal Myc tag
T1 sequence (looked up): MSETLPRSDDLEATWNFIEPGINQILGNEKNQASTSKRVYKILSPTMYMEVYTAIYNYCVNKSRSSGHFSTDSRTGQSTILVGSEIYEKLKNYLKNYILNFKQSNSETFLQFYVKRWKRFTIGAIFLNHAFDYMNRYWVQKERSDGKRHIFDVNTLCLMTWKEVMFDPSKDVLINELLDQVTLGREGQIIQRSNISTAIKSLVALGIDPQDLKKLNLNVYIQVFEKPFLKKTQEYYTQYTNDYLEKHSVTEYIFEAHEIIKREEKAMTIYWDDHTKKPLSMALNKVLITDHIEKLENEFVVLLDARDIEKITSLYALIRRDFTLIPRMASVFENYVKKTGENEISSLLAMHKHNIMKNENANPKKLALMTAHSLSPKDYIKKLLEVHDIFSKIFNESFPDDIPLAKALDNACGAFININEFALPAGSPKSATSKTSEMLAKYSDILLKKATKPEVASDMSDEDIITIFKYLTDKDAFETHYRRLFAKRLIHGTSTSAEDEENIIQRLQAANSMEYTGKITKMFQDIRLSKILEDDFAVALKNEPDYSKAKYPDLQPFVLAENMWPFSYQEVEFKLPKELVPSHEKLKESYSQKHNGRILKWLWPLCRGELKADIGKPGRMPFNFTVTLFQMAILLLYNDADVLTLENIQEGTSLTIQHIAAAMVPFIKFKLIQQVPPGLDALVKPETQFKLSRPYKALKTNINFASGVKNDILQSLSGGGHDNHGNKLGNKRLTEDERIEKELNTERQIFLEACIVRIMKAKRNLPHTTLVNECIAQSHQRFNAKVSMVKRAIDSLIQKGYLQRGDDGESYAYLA


Experiments:
[1] = target: Clb5/Gst-Cdc28HA(K-) complex (S. cerevisiae) (UniProt P30283+P00546); assay: co-purification on GSH-Sepharose from co-infected insect cells
Skp1 (S. cerevisiae) [2] = target: Skp1 (S. cerevisiae) (UniProt P52286); assay: co-immunoprecipitation from co-infected insect cells, immunoblot
[3] = target: T1, Myc-tagged Cdc53 (Cdc53^M); assay: as above
Skp1 (S. cerevisiae) [4] = target: Skp1 (S. cerevisiae) (UniProt P52286); assay: co-immunoprecipitation from co-infected insect cells, immunoblot (FIG. 4A)
[5] = target: T1, Myc-tagged Cdc53 (Cdc53^M); assay: as above

binding [1] | binding (Skp1 (S. cerevisiae) [2]) | binding [3] | binding (Skp1 (S. cerevisiae) [4]) | binding [5] | Molecule
binds |  |  |  |  | unphosphorylated Sic1 (from UniProt P38634 1-284)
 | binds | binds | binds | binds | Gene 10-tagged Grr1 (Grr1^G10) (protein, S. cerevisiae, UniProt P24814 1-1151, looked up, not shown: small tags and cut ends) MDQDNNNHNDSNRLHPPDIHPNLGPQLWLNSSGDFDDNNNNNNNNNNNNSTRPQMPSRTRETATSERNASEVRDATLNNIFRFDSIQRETLLPTNNGQPLNQNFSLTFQPQQQTNALNGIDINTVNTNLMNGVNVQIDQLNRLLPNLPEEERKQIHEFKLIVGKKIQEFLVVIEKRRKKILNEIELDNLKLKELRIDNSPQAISYLHKLQRMRLRALETENMEIRNLRLKILTIIEEYKKSLYAYCHSKLRGQQVENPTDNFIIWINSIDTTESSDLKEGLQDLSRYSRQFINNVLSNPSNQNICTSVTRRSPVFALNMLPSEILHLILDKLNQKYDIVKFLTVSKLWAEIIVKILYYRPHINKKSQLDLFLRTMKLTSEETVFNYRLMIKRLNFSFVGDYMHDTELNYFVGCKNLERLTLVFCKHITSVPISAVLRGCKFLQSVDITGIRDVSDDVFDTLATYCPRVQGFYVPQARNVTFDSLRNFIVHSPMLKRIKITANNNMNDELVELLANKCPLLVEVDITLSPNVTDSSLLKLLTRLVQLREFRITHNTNITDNLFQELSKVVDDMPSLRLIDLSGCENITDKTIESIVNLAPKLRNVFLGKCSRITDASLFQLSKLGKNLQTVHFGHCFNITDNGVRALFHSCTRIQYVDFACCTNLTNRTLYELADLPKLKRIGLVKCTQMTDEGLLNMVSLRGRNDTLERVHLSYCSNLTIYPIYELLMSCPRLSHLSLTAVPSFLRPDITMYCRPAPSDFSENQRQIFCVFSGKGVHKLRHYLVNLTSPAFGPHVDVNDVLTKYIRSKNLIFNGETLEDALRRIITDLNQDSAAIIAATGLNQINGLNNDFLFQNINFERIDEVFSWYLNTFDGIRMSSEEVNSLLLQVNKTFCEDPFSDVDDDQDYVVAPGVNREINSEMCHIVRKFHELNDHIDDFEVNVASLVRVQFQFTGFLLHEMTQTYMQMIELNRQICLVQKTVQESGNIDYQKGLLIWRLLFIDKFIMVVQKYKLSTVVLRLYLKDNITLLTRQRELLIAHQRSAWNNNNDNDANRNANNIVNIVSDAGANDTSNNETNNGNDDNETENPNFWRQFGNRMQISPDQMRNLQMGLRNQNMVRNNNNNTIDESMPDTAIDSQMDEASGTPDEDML
